Measured values taken from US20230416299A1, “COMPOUND AND METHOD FOR THE TREATMENT AND DIAGNOSIS OF NEURODEGENERATIVE CONDITIONS” (Swansea University, priority 2013, published 2023).

Columns and labels:
[1] = Cholestenoic acids in mouse brain by LC-ESI-MSn
[2] = Cholestenoic acids in mouse plasma by LC-ESI-MSn
[3] = WT mouse (Cyp7b1 colony), 13 months
[4] = WT mouse (Cyp7b1 colony), 23 months
[5] = WT mouse (Cyp27a1 colony), 3 months

| SMILES | Mean concentration in brain (ng/mg ± SD) ([1]; Cyp7b1−/− mouse, 13 months) [ng/mg] | Mean concentration in brain (ng/mg ± SD) ([1]; Cyp7b1−/− mouse, 23 months) [ng/mg] | Mean concentration in brain (ng/mg ± SD) [1, 3] [ng/mg] | Mean concentration in brain (ng/mg ± SD) [1, 4] [ng/mg] | Mean concentration in plasma (ng/mL ± SD) ([2]; Cyp7b1−/− mouse, 13 months) [ng/mL] | Mean concentration in plasma (ng/mL ± SD) ([2]; Cyp7b1−/− mouse, 23 months) [ng/mL] | Mean concentration in plasma (ng/mL ± SD) [2, 3] [ng/mL] | Mean concentration in plasma (ng/mL ± SD) [2, 4] [ng/mL] | Mean concentration in plasma (ng/mL ± SD) [2, 5] [ng/mL] | Mean concentration in plasma (ng/mL ± SD) ([2]; Cyp27a1−/− mouse, 3 months) [ng/mL] |
| --- | --- | --- | --- | --- | --- | --- | --- | --- | --- | --- |
| CC(CCC[C@@H](C)[C@H]1CC[C@H]2[C@@H]3CC=C4C[C@@H](O)CC[C@]4(C)[C@H]3CC[C@]12C)C(=O)O (stereo partly drawn) [3β-HCA, 3β-hydroxycholest-5-en-26-oic acid] | 0.12 ± 0.02 | 0.15 ± 0.01 | 0.01 ± 0.00 | 0.01 ± 0.00 | 7.32 ± 1.50 | 6.69 ± 2.64 | 1.97 ± 0.72 | 1.75 ± 0.50 | 3.56 ± 1.22 |  |
| CC(CCC[C@@H](C)[C@H]1CC[C@H]2[C@@H]3[C@H](O)CC4=CC(=O)CC[C@]4(C)[C@H]3CC[C@]12C)C(=O)O (stereo partly drawn) [7αH,3O-CA, 7α-hydroxy-3-oxocholest-4-en-26-oic acid] |  |  |  |  | 14.21 ± 3.76 | 20.73 ± 1.77 | 25.89 ± 10.9 | 125.19 ± 9.44 | 28.96 ± 7.22 | 5.23 ± 1.07 |
| C[C@H](CCCC(C)(C)O)[C@H]1CC[C@H]2[C@@H]3CC=C4C[C@@H](O)CC[C@]4(C)[C@H]3CC[C@]12C [25-HC, cholest-5-ene-3β,25-diol] |  | > 2 |  |  |  |  |  |  |  |  |
